Assay [1] concerns the target T1, Mtf1-Δ20, His-tagged (Saccharomyces cerevisiae) (UniProt P14908).
T1 sequence: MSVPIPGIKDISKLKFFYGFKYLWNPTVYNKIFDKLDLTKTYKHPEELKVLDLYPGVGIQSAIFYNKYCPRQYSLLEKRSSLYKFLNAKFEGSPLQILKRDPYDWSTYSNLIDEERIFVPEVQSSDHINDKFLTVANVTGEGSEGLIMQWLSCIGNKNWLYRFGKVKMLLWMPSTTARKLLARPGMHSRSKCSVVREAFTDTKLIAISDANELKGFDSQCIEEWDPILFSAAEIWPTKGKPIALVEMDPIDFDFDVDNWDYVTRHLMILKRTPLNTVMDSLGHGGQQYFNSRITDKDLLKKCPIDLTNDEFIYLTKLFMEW
Description: ultrafiltration.

Assay [2] deals with T2, Mtf1-WT (Mitochondrial Transcription Factor 1), His-tagged (Saccharomyces cerevisiae) (UniProt P14908).
T2 sequence: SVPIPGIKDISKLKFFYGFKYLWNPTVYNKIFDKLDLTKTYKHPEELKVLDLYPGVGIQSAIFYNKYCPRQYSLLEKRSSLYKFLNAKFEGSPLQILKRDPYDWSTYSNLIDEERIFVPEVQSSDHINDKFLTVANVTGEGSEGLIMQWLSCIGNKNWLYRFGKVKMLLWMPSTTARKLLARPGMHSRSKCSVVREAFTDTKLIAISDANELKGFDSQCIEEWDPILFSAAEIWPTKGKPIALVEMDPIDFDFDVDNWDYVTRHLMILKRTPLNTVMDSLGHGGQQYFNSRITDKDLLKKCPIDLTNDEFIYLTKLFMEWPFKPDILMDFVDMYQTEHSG
Description: ultrafiltration.

Assay [3] concerns the target T1, Mtf1-Δ20, His-tagged (Saccharomyces cerevisiae). Briefly: BLI.
Assay [4] deals with T2, Mtf1-WT (Mitochondrial Transcription Factor 1), His-tagged (Saccharomyces cerevisiae). Description: BLI. On the technique in general: Biolayer interferometry detects binding as a change in optical thickness at a sensor tip.

No constants are given. Whether binding was seen depends on the method and setting. For some of these results: Binding can be weak; no strength is given. Where a sequence is shown, tags or fusion partners need not be part of it.

In the case of “Rpo41, core subunit of the Saccharomyces cerevisiae mitochondrial RNA polymerase (enzyme)”, the binding entry is reported as “no binding (tested: 2 µM each)” in assay [1], “binds” in assay [2], “binds weakly” in assay [3] and “binds” in assay [4].

These data come from paper doi:10.1101/2020.03.06.980961.
